Reference: paper PMC3743769
The exact form of at least one protein or probe is not confirmed. Where cells or extracts were used, other partners may take part.

Protein sequences, listed by entry. Tags and fused reporters are not part of them. Lines headed by an entry give the natural chain unless they say otherwise; changes in a name come on top.
UniProt O43524: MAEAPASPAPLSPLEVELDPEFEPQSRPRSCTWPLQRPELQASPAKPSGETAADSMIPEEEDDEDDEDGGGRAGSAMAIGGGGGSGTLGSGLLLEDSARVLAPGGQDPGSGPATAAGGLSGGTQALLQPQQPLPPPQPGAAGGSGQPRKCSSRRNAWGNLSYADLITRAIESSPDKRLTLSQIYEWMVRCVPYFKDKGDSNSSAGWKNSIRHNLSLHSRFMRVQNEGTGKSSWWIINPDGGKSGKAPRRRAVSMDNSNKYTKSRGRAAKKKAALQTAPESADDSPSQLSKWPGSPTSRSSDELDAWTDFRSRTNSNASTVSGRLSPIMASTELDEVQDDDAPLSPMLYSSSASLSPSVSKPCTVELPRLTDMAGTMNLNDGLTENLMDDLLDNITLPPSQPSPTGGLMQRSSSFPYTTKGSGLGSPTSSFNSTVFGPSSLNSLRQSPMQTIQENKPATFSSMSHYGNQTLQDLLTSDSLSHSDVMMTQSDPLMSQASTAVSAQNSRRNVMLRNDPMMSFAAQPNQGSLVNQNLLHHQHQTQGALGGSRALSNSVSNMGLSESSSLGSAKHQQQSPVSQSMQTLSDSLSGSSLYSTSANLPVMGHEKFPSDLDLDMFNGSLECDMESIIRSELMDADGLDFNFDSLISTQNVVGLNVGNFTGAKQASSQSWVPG

What was measured:
FOXO3a [1] = molecular target: FOXO3a (UniProt O43524); assay: EMSA; details: 10-20 ug nuclear extract, dose-dependent; […], DTT, glycerol, EDTA, NaCl, MgCl2, Tris; concentrations and pH not stated), room temperature 20 min, protein in an extract, label: 3'-biotin
FOXO3a [2] = molecular target: FOXO3a (UniProt O43524); assay: competition with a labelled probe; details: 50-fold excess abolished binding to probes 1 and 2; […], DTT, glycerol, EDTA, NaCl, MgCl2, Tris; concentrations and pH not stated), room temperature 20 min, protein in an extract

## TTGATGCACATATGTTTACAATGCAGCCTC (double strand) [probe 2 (PRNP -1177 to -1170)]
FOXO3a [1]
  binding result: binds

## ATGGCCCAGGCACTGTTTACAGCAGCTCT (double strand) [probe 1 (PRNP -1299 to -1292)]
FOXO3a [1]
  binding result: binds

## ATGGCCCAGGCACTGTTTACAGCAGCTCT (double strand) [cold probe (unlabeled probe 1)]
FOXO3a [2]
  binding result: binds
